Measured values from the supplement of paper PMC10849652.
This is one part of the list.

Chains of the proteins cited; added tags and fusions are not shown. Lines headed by an entry give the natural chain unless they say otherwise; changes in a name come on top.
UniProt P46087: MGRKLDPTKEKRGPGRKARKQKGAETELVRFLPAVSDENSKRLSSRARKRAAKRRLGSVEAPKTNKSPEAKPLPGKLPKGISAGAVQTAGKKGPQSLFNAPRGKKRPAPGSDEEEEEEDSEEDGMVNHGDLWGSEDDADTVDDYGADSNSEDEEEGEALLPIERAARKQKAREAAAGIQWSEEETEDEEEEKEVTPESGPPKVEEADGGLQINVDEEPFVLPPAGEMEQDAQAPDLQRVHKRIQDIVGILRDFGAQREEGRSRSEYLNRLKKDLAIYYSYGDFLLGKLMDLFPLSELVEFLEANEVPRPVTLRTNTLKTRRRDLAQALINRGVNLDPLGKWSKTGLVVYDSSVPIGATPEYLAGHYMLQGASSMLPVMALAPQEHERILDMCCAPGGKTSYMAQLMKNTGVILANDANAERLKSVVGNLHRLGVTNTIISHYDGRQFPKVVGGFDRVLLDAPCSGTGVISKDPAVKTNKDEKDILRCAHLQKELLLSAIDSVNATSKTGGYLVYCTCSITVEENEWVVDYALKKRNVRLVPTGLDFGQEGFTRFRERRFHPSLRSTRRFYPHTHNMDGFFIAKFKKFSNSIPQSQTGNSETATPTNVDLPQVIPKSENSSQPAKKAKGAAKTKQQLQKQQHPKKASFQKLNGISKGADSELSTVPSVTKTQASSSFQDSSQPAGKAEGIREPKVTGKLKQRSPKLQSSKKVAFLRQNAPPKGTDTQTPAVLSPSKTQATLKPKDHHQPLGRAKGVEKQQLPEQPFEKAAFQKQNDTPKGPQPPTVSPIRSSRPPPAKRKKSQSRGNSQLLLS
UniProt Q16656: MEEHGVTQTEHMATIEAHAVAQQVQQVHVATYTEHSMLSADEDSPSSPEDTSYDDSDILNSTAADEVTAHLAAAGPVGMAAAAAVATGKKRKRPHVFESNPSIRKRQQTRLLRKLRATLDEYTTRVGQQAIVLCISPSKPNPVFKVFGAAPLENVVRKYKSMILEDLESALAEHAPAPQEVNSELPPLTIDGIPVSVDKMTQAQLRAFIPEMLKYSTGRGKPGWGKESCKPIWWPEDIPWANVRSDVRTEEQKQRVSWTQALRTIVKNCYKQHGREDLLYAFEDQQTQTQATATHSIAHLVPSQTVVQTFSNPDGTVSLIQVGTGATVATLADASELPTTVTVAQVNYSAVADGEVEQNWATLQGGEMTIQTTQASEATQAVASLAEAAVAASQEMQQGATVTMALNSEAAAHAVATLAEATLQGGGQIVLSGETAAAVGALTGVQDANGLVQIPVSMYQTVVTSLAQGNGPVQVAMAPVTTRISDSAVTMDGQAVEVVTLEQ
UniProt Q00653: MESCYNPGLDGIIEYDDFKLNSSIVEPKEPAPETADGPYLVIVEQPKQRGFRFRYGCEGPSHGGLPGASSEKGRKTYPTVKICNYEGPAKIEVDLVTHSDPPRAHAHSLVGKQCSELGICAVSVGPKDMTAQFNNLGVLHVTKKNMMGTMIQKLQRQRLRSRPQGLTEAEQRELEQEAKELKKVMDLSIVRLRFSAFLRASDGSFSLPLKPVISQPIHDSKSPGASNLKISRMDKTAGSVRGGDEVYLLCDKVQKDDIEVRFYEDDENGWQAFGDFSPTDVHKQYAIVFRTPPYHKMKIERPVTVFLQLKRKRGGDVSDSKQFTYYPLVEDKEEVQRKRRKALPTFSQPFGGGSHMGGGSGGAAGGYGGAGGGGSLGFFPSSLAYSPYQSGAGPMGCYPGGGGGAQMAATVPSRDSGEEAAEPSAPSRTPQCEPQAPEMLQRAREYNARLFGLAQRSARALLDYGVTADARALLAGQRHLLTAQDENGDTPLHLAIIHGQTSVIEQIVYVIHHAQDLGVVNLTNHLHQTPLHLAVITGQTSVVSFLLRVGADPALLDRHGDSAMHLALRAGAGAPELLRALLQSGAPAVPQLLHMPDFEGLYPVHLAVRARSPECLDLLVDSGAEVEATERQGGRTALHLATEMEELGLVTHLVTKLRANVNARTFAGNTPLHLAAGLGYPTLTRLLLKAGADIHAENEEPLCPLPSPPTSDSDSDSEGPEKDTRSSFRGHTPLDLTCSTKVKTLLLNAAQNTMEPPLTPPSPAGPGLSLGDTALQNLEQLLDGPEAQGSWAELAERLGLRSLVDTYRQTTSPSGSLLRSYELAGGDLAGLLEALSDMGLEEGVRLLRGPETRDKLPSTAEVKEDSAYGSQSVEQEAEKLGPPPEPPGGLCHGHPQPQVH
UniProt Q8NBF2: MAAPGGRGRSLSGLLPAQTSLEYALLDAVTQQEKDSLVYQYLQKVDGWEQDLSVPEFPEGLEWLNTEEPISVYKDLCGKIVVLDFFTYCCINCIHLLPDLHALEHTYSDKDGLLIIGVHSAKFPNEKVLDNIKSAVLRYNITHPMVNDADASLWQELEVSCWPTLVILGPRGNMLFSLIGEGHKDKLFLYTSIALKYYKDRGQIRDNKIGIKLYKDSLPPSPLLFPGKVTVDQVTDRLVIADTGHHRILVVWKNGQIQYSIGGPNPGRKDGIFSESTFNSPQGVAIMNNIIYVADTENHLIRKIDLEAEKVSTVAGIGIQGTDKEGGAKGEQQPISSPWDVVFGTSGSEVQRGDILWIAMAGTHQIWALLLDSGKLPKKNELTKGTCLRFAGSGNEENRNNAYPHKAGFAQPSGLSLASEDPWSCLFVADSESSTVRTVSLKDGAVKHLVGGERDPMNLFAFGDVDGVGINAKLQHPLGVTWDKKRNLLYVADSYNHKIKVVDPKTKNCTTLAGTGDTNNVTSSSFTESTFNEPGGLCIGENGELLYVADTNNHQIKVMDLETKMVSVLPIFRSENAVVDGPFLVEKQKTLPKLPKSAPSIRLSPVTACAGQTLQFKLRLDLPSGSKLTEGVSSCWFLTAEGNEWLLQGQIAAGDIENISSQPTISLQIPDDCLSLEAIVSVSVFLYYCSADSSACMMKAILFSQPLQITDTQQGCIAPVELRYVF
UniProt Q9BZQ8: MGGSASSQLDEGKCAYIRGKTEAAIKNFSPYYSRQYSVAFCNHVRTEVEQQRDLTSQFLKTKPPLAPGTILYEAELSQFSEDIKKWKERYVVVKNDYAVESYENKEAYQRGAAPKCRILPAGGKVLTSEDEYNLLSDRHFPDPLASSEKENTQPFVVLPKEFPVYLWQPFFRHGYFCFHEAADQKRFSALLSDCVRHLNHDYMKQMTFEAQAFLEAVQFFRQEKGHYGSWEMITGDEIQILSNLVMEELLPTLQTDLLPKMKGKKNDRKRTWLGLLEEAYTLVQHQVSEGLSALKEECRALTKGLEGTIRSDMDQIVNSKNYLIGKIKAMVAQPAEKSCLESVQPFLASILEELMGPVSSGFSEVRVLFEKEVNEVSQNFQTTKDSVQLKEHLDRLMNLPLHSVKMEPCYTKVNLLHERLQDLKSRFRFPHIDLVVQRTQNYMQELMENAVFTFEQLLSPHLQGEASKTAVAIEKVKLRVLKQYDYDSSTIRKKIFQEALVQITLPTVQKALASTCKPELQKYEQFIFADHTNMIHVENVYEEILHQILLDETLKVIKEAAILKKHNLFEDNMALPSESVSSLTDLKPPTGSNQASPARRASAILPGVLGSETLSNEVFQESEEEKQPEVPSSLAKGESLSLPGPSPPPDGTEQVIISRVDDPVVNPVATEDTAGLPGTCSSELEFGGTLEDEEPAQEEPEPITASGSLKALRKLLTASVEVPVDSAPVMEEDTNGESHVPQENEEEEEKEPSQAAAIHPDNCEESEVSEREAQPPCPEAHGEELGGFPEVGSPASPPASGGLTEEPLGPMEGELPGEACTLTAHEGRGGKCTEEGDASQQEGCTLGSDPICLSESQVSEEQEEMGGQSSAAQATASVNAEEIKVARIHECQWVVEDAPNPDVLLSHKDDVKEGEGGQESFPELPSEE
UniProt Q7RTP0: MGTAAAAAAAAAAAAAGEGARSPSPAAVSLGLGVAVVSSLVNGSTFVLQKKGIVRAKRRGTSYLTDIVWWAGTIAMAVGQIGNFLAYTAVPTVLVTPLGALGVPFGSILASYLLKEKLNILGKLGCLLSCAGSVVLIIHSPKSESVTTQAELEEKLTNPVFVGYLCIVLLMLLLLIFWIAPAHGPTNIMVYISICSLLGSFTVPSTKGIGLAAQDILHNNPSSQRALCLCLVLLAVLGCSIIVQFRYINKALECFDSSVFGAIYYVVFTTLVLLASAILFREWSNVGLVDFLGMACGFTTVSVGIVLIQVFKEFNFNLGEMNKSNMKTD
UniProt O60551: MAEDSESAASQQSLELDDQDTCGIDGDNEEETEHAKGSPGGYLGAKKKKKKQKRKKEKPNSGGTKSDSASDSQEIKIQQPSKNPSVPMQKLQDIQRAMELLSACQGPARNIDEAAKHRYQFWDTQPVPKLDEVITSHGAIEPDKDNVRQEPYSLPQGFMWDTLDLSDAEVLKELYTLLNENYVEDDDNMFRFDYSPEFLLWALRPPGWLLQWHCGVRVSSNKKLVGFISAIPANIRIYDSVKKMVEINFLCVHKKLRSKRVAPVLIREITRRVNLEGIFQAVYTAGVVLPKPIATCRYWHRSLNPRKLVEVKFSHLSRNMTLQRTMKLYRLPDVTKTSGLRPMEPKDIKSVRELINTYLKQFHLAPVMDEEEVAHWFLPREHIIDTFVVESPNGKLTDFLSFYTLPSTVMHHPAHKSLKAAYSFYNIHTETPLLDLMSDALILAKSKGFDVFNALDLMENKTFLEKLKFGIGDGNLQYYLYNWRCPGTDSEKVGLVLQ
UniProt O60361, whole entry, looked up: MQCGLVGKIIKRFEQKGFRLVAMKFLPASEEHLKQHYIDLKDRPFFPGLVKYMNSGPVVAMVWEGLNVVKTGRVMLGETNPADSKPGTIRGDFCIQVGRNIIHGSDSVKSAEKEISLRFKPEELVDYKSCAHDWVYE
UniProt Q96IY1: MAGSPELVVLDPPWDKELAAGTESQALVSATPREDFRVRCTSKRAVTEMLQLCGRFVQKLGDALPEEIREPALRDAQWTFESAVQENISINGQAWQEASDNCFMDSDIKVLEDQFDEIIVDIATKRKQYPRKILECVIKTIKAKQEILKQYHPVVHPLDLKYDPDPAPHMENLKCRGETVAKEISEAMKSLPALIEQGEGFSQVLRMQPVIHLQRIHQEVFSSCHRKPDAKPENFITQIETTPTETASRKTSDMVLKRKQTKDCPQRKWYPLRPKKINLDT
UniProt O15118: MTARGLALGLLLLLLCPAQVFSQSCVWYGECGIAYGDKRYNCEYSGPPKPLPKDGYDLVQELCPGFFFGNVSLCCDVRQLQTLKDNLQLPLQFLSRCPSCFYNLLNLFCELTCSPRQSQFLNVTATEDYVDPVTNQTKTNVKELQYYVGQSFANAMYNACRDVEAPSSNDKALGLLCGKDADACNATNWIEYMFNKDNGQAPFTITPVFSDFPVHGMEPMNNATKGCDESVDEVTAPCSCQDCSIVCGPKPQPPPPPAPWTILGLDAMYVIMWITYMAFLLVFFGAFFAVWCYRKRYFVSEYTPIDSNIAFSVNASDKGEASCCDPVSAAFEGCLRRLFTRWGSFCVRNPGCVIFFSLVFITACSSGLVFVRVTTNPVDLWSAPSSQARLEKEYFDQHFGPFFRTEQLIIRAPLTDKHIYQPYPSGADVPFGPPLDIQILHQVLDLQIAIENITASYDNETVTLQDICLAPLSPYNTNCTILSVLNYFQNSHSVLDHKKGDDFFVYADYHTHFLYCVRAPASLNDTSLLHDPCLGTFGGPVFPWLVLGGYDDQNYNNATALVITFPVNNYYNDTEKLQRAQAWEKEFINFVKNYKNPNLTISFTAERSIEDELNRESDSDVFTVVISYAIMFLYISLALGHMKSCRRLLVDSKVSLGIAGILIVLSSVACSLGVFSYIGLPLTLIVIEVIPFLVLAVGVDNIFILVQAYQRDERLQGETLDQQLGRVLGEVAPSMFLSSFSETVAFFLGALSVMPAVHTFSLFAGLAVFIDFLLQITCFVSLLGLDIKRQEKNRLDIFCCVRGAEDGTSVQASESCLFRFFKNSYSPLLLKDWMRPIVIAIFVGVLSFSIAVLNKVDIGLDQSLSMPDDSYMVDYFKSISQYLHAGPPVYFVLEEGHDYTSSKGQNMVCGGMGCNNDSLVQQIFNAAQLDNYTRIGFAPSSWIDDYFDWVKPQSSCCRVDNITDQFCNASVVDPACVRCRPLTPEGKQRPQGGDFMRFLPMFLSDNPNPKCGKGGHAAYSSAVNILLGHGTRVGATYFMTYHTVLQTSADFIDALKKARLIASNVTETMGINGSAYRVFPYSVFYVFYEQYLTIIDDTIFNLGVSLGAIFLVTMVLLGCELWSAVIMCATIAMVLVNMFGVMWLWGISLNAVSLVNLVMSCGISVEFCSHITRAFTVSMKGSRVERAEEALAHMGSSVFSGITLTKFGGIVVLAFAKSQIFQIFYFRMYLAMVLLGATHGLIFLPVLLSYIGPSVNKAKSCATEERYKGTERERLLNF
UniProt O75607: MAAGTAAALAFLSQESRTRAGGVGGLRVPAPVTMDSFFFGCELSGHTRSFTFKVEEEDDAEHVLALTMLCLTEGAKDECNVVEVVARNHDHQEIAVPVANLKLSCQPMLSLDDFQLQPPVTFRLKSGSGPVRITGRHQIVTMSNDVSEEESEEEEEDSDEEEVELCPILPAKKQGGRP

What was measured:
Test in all cases: log2 fold change, soluble protein after heating vs DMSO (PISA); higher = thermal stabilisation; K562 cells, 10 uM, 30 min; active = over 0.2 and 3.5 SD of the protein, either way, in both replicates (recomputed)
[1] = compound: CC[C@@H]1C(=O)N(C)c2cnc(Nc3ccc(C(=O)NC4CCN(C)CC4)cc3OC)nc2N1C1CCCC1
How it was run: (§1)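 Thermal stability values are relative to control samples and come from duplicates. They are expressed as log2 fold changes. For measurement, K562 cells (2×10^6 cells/mL) received 10 μM compound for 30 min, and aliquots were heated for 3 min over 48°C-58°C, pooled, and extracted at 4°C in PBS with 0.5% NP-40. Soluble protein, the supernatant after 21,000xg for 90 min, was quantified by TMTpro 16plex LC-MS/MS with equalised channel sums.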

[2] = compound: CC[C@@H]1C(=O)N(C)c2cnc(Nc3ccc(C(=O)N[C@H]4CC[C@H](N5CCN(CC6CC6)CC5)CC4)cc3OC)nc2N1C(C)C [volasertib]
How it was run: as §1

[3] = compound: CC[C@H](C)N1C=C(C2=C(C=C(C=C21)C3=CN=C(C=C3)N4CCNCC4)C(=O)NCC5=C(C=C(NC5=O)C)C)C
How it was run: as §1

[4] = compound: CC[C@H](C)[C@@H](C(=O)N[C@@H]([C@@H](C)O)C(=O)N[C@@H](CC(C)C)C(=O)[C@]1(CO1)C)NC(=O)[C@H]([C@@H](C)CC)N(C)C(=O)C [epoxomicin]
How it was run: as §1

[5] = compound: CCn1cc(-c2ccnc3[nH]c(-c4cccc(CN(C)C)c4)cc23)c(-c2ccc(NC(=O)N(C)C)cc2)n1
How it was run: as §1

[6] = compound: CN(C)CC(=O)Nc1ccc2[nH]c(=O)c3ccccc3c2c1
How it was run: as §1

[7] = compound: CN1C2=C(C3=C1C(=O)N(N=C3)CC4=CC(=CC=C4)N)SC(=C2)S(=O)C
How it was run: as §1

[8] = compound: CN1CCC(CNc2ccc3ncc(-c4cccc(OC(F)(F)F)c4)n3n2)CC1
How it was run: as §1

[9] = compound: CN1CCN(CCOc2cc(OC3CCOCC3)c3c(Nc4c(Cl)ccc5c4OCO5)ncnc3c2)CC1 [saracatinib]
How it was run: as §1

[10] = compound: CN1CCN(c2nc(C3=C(c4c[nH]c5ccccc45)C(=O)NC3=O)c3ccccc3n2)CC1 [sotrastaurin]
How it was run: as §1

[11] = compound: CN1CCc2c(c3ccccc3n2Cc2ccc(C(=O)NO)cc2)C1 [Tubastatin A]
How it was run: as §1

[12] = compound: CNC(=O)C1=CC=CC=C1NC2=NC(=NC=C2Cl)NC3=C(C=C(C=C3)N4CCOCC4)OC
How it was run: as §1

[13] = compound: CNC(=O)c1ccc(Nc2ncc(C(F)(F)F)c(NCc3nccnc3N(C)S(C)(=O)=O)n2)cc1 [defactinib]
How it was run: as §1

[14] = compound: CNCc1ccc(-c2[nH]c3cc(F)cc4c3c2CCNC4=O)cc1 [rucaparib]
How it was run: as §1

[15] = compound: CNc1nc(-c2ccc3c(N)n[nH]c3c2)cc(N2C[C@@H](C(=O)NC3CCCCC3)CC[C@H]2C)n1
How it was run: as §1

[16] = compound: COC(=O)N[C@@H](C)CNc1nccc(-c2cn(C(C)C)nc2-c2cc(Cl)cc(NS(C)(=O)=O)c2F)n1 [encorafenib]
How it was run: as §1

[17] = compound: COC(=O)[C@H](CCSC)NC(=O)C1=C(C=C(C=C1)NC[C@H](CS)N)C2=CC=CC=C2
How it was run: as §1

[18] = compound: CN(CCOC1=CC=C(C=C1)C[C@H]2C(=O)NC(=O)S2)C3=CC=CC=N3 (racemic) [rosiglitazone]
How it was run: as §1

[19] = compound: CN1CC[C@H](c2c(O)cc(O)c3c(=O)cc(-c4ccccc4Cl)oc23)[C@H](O)C1 [alvocidib]
How it was run: as §1

[20] = compound: CCn1c(C(=O)N(C2CC2)C2CC2)cc2c3c(ncn3C)c(Nc3cc(C)n(C)n3)nc21
How it was run: as §1

Measured: log2 fold change

NQO1 (UniProt P15559)
inactive: [1] 0.011 | [2] 0.057 | [4] 0.083 | [5] -0.064 | [6] -0.005 | [8] 0.046 | [9] -0.076 | [10] -0.002 | [11] 0.027 | [12] 0.161 | [13] -0.038 | [14] -0.077 | [15] -0.008 | [16] 0.005 | [17] -0.022
active: [3] 0.276 | [7] 0.356

NOP2 isoform 4 (UniProt P46087)
inactive: [1] 0.196 | [2] 0.348 | [3] -0.03 | [4] -0.328 | [5] 0.364 | [6] -0.346 | [7] 0.546 | [8] 0.494 | [9] -0.09 | [10] -0.007 | [11] 0.079 | [12] 0.064 | [14] 0.673 | [15] 0.115 | [16] 0.238 | [17] -0.024
active: [13] 1.26

NRDC isoform 2 (UniProt O43847)
active: [2] -0.371
inactive: [1] -0.18 | [3] 0.069 | [4] 0.038 | [5] -0.087 | [6] 0.055 | [7] 0 | [8] -0.087 | [9] -0.024 | [10] -0.028 | [11] -0.009 | [12] -0.033 | [13] -0.077 | [14] 0.092 | [15] 0.01 | [16] 0.024 | [17] -0.076

NRF1 isoform 4 (UniProt Q16656)
inactive: [1] -0.173 | [3] 0.087 | [4] 0.268 | [5] 0.035 | [6] 0.08 | [7] -0.084 | [8] 0.037 | [9] 0.102 | [10] -0.045 | [11] 0.015 | [12] -0.016 | [14] -0.11 | [15] -0.061 | [16] 0.036 | [17] 0.015
active: [2] -0.501 | [13] -0.34

NFKB2 (UniProt Q00653)
inactive: [1] -0.023 | [2] -0.017 | [3] 0.064 | [4] -0.024 | [18] -0.019 | [19] -0.023 | [11] -0.023 | [14] 0.011 | [16] 0.023

NHLRC2 (UniProt Q8NBF2)
active: [8] -0.272
inactive: [1] 0.024 | [2] 0.029 | [3] -0.026 | [4] -0.06 | [5] -0.109 | [6] 0.003 | [7] -0.064 | [9] -0.026 | [10] 0.039 | [11] -0.072 | [12] -0.055 | [13] -0.039 | [14] -0.016 | [15] 0.059 | [16] -0.045 | [17] 0.146

NOP56 (UniProt O00567)
inactive: [1] 0.141 | [2] 0.238 | [3] 0.034 | [4] -0.44 | [5] 0.066 | [6] -0.208 | [7] 0.299 | [8] 0.168 | [9] -0.034 | [10] 0.018 | [11] -0.01 | [12] -0.067 | [13] 0.375 | [14] 0.233 | [15] -0.028 | [16] 0.057 | [17] 0.007

NKAP (UniProt Q8N5F7)
inactive: [1] 0.026 | [2] -0.3 | [3] 0.082 | [4] -0.109 | [5] 0.092 | [6] 0.052 | [7] -0.025 | [8] -0.164 | [9] 0.067 | [11] 0.093 | [12] -0.296 | [13] 0.092 | [14] 0.055 | [15] 0.085 | [16] 0.149 | [17] 0.039

NMU (UniProt P48645)
inactive: [1] 0.094 | [2] 0.072 | [3] 0 | [4] 0.077 | [5] 0.008 | [6] -0.017 | [7] -0.008 | [8] 0.271 | [9] -0.017 | [11] 0.149 | [12] -0.055 | [13] -0.08 | [14] -0.076 | [15] -0.09 | [16] 0.034 | [17] -0.042

NIBAN1 (UniProt Q9BZQ8)
inactive: [1] -0.16 | [3] 0.073 | [4] 0.066 | [5] -0.085 | [6] 0.022 | [7] 0.04 | [8] -0.208 | [9] -0.051 | [10] -0.086 | [11] 0.004 | [12] -0.013 | [13] -0.111 | [14] 0.08 | [15] 0.013 | [16] 0.144 | [17] -0.017
active: [2] -0.428

NIPA1 (UniProt Q7RTP0)
inactive: [1] 0.173 | [2] 0.045 | [3] 0.005 | [20] 0.008 | [6] 0.043 | [18] 0.089 | [7] -0.068 | [9] 0.156 | [10] -0.053 | [19] 0.1 | [11] -0.029 | [12] 0 | [13] 0.059 | [14] -0.045 | [15] -0.012 | [16] -0.092 | [17] -0.068

NMT2 (UniProt O60551)
inactive: [1] 0.013 | [2] -0.177 | [3] 0.039 | [4] 0.01 | [5] -0.098 | [6] -0.013 | [7] 0.002 | [8] -0.208 | [9] -0.031 | [10] 0.007 | [11] 0.008 | [12] 0.146 | [13] -0.016 | [14] -0.04 | [15] -0.027 | [16] 0.02 | [17] 0.023

NME2P1 (UniProt O60361)
active: [14] -0.814
inactive: [1] 0.117 | [2] 0.03 | [3] -0.177 | [4] 0.033 | [5] 0.198 | [6] -0.021 | [8] -0.074 | [10] 0.057 | [11] 0.059 | [12] -0.145 | [13] 0.034 | [16] 0.003 | [17] -0.017

NSL1 (UniProt Q96IY1)
inactive: [1] -0.014 | [2] -0.34 | [3] 0.181 | [20] 0.06 | [5] -0.15 | [6] 0.042 | [18] -0.056 | [7] -0.105 | [8] -0.421 | [9] 0 | [10] -0.03 | [19] -0.112 | [11] 0.049 | [12] -0.109 | [13] -0.107 | [14] 0.038 | [15] -0.085 | [16] -0.102 | [17] -0.058

NOSIP (UniProt Q9Y314)
active: [2] -1.06
inactive: [1] -0.373 | [3] 0.151 | [4] 0.104 | [5] -0.017 | [6] 0.196 | [7] 0.109 | [8] 0.097 | [9] -0.045 | [10] -0.28 | [11] 0.199 | [12] 0.05 | [13] -0.199 | [14] 0.003 | [15] -0.106 | [16] 0.181 | [17] -0.182

NPC1 (UniProt O15118)
inactive: [1] -0.016 | [2] -0.072 | [3] -0.031 | [4] -0.02 | [5] 0.005 | [6] -0.029 | [7] 0.004 | [8] 0.012 | [9] 0.077 | [10] 0.007 | [11] -0.045 | [12] 0.02 | [13] 0.01 | [14] -0.147 | [15] -0.049 | [16] -0.012 | [17] -0.006

NPM3 (UniProt O75607)
inactive: [1] 0.065 | [2] 0.124 | [3] -0.099 | [5] 0.014 | [6] -0.011 | [7] 0.143 | [8] 0.145 | [9] 0 | [10] 0 | [11] 0.031 | [12] -0.06 | [13] 0.001 | [14] 0.155 | [15] -0.042 | [16] 0.034 | [17] -0.04

NFATC4 isoform 2 (UniProt Q14934)
inactive: [1] 0.125 | [2] 0.272 | [4] 0.017 | [5] 0.042 | [6] -0.03 | [18] 0.124 | [7] -0.004 | [8] -0.095 | [9] -0.106 | [10] 0.067 | [19] 0.029 | [11] -0.06 | [13] -0.104 | [14] -0.423 | [15] -0.053 | [16] -0.099 | [17] 0.138

Fetched one by one from above, two records:
NIBAN1 (UniProt Q9BZQ8)
inactive: [1] -0.16 | [3] 0.073 | [4] 0.066 | [5] -0.085 | [6] 0.022 | [7] 0.04 | [8] -0.208 | [9] -0.051 | [10] -0.086 | [11] 0.004 | [12] -0.013 | [13] -0.111 | [14] 0.08 | [15] 0.013 | [16] 0.144 | [17] -0.017
active: [2] -0.428

NRDC isoform 2 (UniProt O43847)
active: [2] -0.371
inactive: [1] -0.18 | [3] 0.069 | [4] 0.038 | [5] -0.087 | [6] 0.055 | [7] 0 | [8] -0.087 | [9] -0.024 | [10] -0.028 | [11] -0.009 | [12] -0.033 | [13] -0.077 | [14] 0.092 | [15] 0.01 | [16] 0.024 | [17] -0.076

Remaining list, next part

NMRAL1 (UniProt Q9HBL8)
inactive: [1] 0.27 | [2] 0.294 | [3] 0.105 | [4] 0.035 | [5] 0.055 | [6] 0.122 | [7] 0.059 | [8] 0.526 | [9] 0.115 | [10] 0.028 | [11] 0.14 | [12] 0.061 | [13] 0.122 | [15] 0.018 | [16] -0.14 | [17] -0.154
active: [14] 0.84
